Measured values reported in publication PMC12246756 (Frontiers in Pharmacology, 2025).

Tests used:
Type in all cases: cell-based, human
[1] = system: MCF-7 (breast carcinoma); assay: Sulforhodamine B (SRB) assay, MCF-7; conditions: IC50 in HEK-293 / IC50 in MCF-7
Source text: (§1) Roswell Park Memorial Institute (RPMI)-1640 medium, Dulbecco’s modified eagle medium high glucose (DMEM; Gibco) supplemented with 10% Fetal Bovine Serum (FBS; Gibco, and 1% antibiotic-antimycotic (Gibco; Anti-Anti 100x), phosphate-buffered saline (PBS; Gibco), 0.25% trypsin (Gibco), sodium pyruvate (Sigma-Aldrich), HEPES (Gibco). Human cancer cell lines A549 (lung carcinoma), MCF-7 (breast carcinoma), MDAMB-231 (breast carcinoma), A375 (melanoma), and normal human embryonic kidney cells (HEK-293) were taken from Dr. Sheikh Tasduq Abdullah and Dr. Boobalan Gopu (CSIR-IIIM).
(§2) Their activity was tested against human cancer cell lines A549 (lung carcinoma), MCF-7 (breast carcinoma), MDAMB-231 (breast carcinoma), and A375 (melanoma). The selectivity index (SI) was calculated against normal human embryonic kidney cells (HEK-293) to determine cytotoxic selectivity. The cells (7 × 10^3 cells/well) were seeded on 96 well plates, followed by overnight incubation. Multiple concentrations (50 µM, 20 µM, 10 µM, 5 µM, and 1 µM) of compounds were used to treat the cells, except for control wells that contained only cells with media. After 48 h of incubation, the cells attached to wells were fixed with 50 µL of chilled 50% TCA, and the plate was kept at 4°C for 1 h, as described previously ([Malik et al., 2023]; [Kumar et al., 2024]). The plate was washed (3–4 times) with distilled water (250 µL/well) and air-dried for 24 h. The next day, 100 µL of 0.4% SRB dye was added to each well, and the cells were incubated at room temperature for 1 h. The plate contents were discarded and washed 3 times with 1% glacial acetic acid (250 µL/well), followed by one last wash with distilled water and air drying for another 24 h. Subsequently, 100 µL of Tris base (10 mM, pH 10.5) was added to each well to dissolve the dye bound to fixed cells. The dissolved dye indicating growth inhibition was quantified by calculating optical density at 540 nm via microplate reader (Tecan infinite M200PRO, Switzerland). The IC50 values were calculated using GraphPad Prism Software Version 5.0. A favorable Selectivity Index (SI) is the most relevant parameter to detect anti-cancer potential in vitro as it indicates drug safety against cancer cells versus normal cells, efficacy of the drug, and selectivity. The selectivity index is calculated by using the formula. Selective Index=IC50 in Normal cells/IC50 in Cancerous cell lines

[2] = system: A375 (melanoma); assay: Sulforhodamine B (SRB) assay, A375; conditions: IC50 in HEK-293 / IC50 in A375
Source text: as §1
as §2, with “Subsequently, 100 µL of Tris base (10 mM, pH 10.5) was added to each well to dissolve the dye bound to fixed cells.” left out, “A favorable Selectivity Index (SI) is the most relevant parameter to detect anti-cancer potential in vitro as it indicates drug safety against cancer cells versus normal cells, efficacy of the drug, and selectivity.” left out, “Selective Index=IC50 in Normal cells/IC50 in Cancerous cell lines” left out

[3] = system: MDA-MB 231 (breast carcinoma); assay: Sulforhodamine B (SRB) assay, MDA-MB 231; conditions: IC50 in HEK-293 / IC50 in MDA-MB 231
Source text: as §1
Their activity was tested against human cancer cell lines A549 (lung carcinoma), MCF-7 (breast carcinoma), MDAMB-231 (breast carcinoma), and A375 (melanoma). The selectivity index (SI) was calculated against normal human embryonic kidney cells (HEK-293) to determine cytotoxic selectivity. The cells (7 × 10^3 cells/well) were seeded on 96 well plates, followed by overnight incubation. […] The dissolved dye indicating growth inhibition was quantified by calculating optical density at 540 nm via microplate reader (Tecan infinite M200PRO, Switzerland). The IC50 values were calculated using GraphPad Prism Software Version 5.0. […] The selectivity index is calculated by using the formula. […]

Compound	SI MCF-7 [1]	SI A375 [2]	SI MDA-MB 231 [3]
CCOC(=O)C1=C(C)NC(=N)NC1c1c2c(c(OC)c(OC)c1OC)-c1ccc(OC)c(=O)cc1[C@H](NC(C)=O)CC2 (stereo partly drawn) [Compound 3b, Ethyl 4-((R)-7-acetamido-1,2,3,10-tetramethoxy-9-oxo-5,6,7,9-tetrahydrobenzo [a]heptalen-4-yl)-2-imino-6-methyl-1,2,3,4-tetrahydropyrimidine-5-carboxylate]	0.85	–	–
CCOC(=O)C1=C(C(Cl)(Cl)Cl)NC(=O)NC1c1c2c(c(OC)c(OC)c1OC)-c1ccc(OC)c(=O)cc1[C@H](NC(C)=O)CC2 (stereo partly drawn) [Compound 3d, Ethyl 4-((R)-7-acetamido-1,2,3,10-tetramethoxy-9-oxo-5,6,7,9-tetrahydrobenzo [a]heptalen-4-yl)-2-oxo-6-(trichloromethyl)-1,2,3,4-tetrahydropyrimidine-5-carboxylate]	0.82	–	–
CCOC(=O)C1=C(C(F)(F)C(F)(F)F)NC(=O)NC1c1c2c(c(OC)c(OC)c1OC)-c1ccc(OC)c(=O)cc1[C@H](NC(C)=O)CC2 (stereo partly drawn) [Compound 3f, Ethyl 4-((R)-7-acetamido-1,2,3,10-tetramethoxy-9-oxo-5,6,7,9-tetrahydrobenzo [a]heptalen-4-yl)-2-oxo-6-(perfluoroethyl)-1,2,3,4-tetrahydropyrimidine-5-carboxylate]	0.67	0.62	0.38
CCOC(=O)C1=C(OCC)NC(=O)NC1c1c2c(c(OC)c(OC)c1OC)-c1ccc(OC)c(=O)cc1[C@H](NC(C)=O)CC2 (stereo partly drawn) [Compound 3h, ethyl 4-((R)-7-acetamido-1,2,3,10-tetramethoxy-9-oxo-5,6,7,9-tetrahydrobenzo [a]heptalen-4-yl)-6-ethoxy-2-oxo-1,2,3,4-tetrahydropyrimidine-5-carboxylate]	0.53	0.75	–
CCOC(=O)C1=C(C(F)(F)C(F)(F)F)NC(=O)NC1c1c2c(c(OC)c(OC)c1OC)-c1ccc(OC)c(=O)cc1[C@@H](NC(C)=O)CC2 (stereo partly drawn) [Compound 3g, Ethyl 4-((S)-7-acetamido-1,2,3,10-tetramethoxy-9-oxo-5,6,7,9-tetrahydrobenzo [a]heptalen-4-yl)-2-oxo-6-(perfluoroethyl)-1,2,3,4-tetrahydropyrimidine-5-carboxylate]	1.005	1.52	0.63
CCOC(=O)C1=C(c2cc(F)c(Cl)nc2Cl)NC(=O)NC1c1c2c(c(OC)c(OC)c1OC)-c1ccc(OC)c(=O)cc1[C@H](NC(C)=O)CC2 (stereo partly drawn) [Compound 3e, Ethyl 4-((R)-7-acetamido-1,2,3,10-tetramethoxy-9-oxo-5,6,7,9-tetrahydrobenzo [a]heptalen-4-yl)-6-(2,6-dichloro-5-fluoropyridin-3-yl)-2-oxo-1,2,3,4-tetrahydropyrimidine-5-carboxylate]	0.89	–	–
CCOC(=O)C1=C(C)NC(=S)NC1c1c2c(c(OC)c(OC)c1OC)-c1ccc(OC)c(=O)cc1[C@H](NC(C)=O)CC2 (stereo partly shown) [Compound 3a]	0.73	–	–
COc1c(OC)c2c(c(C3NC(=O)NC(C)=C3C(=O)Oc3ccccc3)c1OC)CC[C@@H](NC(C)=O)c1cc(=O)c(OC)ccc1-2 (stereo partly drawn) [Compound 3c, phenyl 4-((R)-7-acetamido-1,2,3,10-tetramethoxy-9-oxo-5,6,7,9-tetrahydrobenzo [a]heptalen-4-yl)-6-methyl-2-oxo-1,2,3,4-tetrahydropyrimidine-5-carboxylate]	0.79	–	–
